Experimental data: the supplement of paper PMC10849652
Some of the results follow. Residues, ends and D or L forms follow the SMILES beside them. *: point of attachment. Cbz = O=C(OCc1ccccc1)*

By UniProt entry, the sequences of proteins in these tests, tags left out. Where a name states a change or a piece, a line headed by the entry shows the natural chain unless it says otherwise.
UniProt Q5T0N5: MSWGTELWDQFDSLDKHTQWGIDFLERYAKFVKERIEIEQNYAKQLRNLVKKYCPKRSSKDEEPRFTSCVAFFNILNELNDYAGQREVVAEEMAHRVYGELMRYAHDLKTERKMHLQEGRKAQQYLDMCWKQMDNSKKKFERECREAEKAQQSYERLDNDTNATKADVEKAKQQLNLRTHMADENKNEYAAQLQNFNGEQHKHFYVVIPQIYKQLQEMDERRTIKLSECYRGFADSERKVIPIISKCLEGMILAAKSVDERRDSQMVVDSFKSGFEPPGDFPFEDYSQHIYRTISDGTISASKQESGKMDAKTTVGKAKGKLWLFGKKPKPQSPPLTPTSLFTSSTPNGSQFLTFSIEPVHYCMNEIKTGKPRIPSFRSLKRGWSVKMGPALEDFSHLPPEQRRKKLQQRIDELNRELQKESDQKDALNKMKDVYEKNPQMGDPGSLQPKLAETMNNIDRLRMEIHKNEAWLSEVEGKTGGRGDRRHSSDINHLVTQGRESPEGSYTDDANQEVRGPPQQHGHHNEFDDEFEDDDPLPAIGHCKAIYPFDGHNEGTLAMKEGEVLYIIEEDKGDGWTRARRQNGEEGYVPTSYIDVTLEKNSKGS
UniProt Q14153: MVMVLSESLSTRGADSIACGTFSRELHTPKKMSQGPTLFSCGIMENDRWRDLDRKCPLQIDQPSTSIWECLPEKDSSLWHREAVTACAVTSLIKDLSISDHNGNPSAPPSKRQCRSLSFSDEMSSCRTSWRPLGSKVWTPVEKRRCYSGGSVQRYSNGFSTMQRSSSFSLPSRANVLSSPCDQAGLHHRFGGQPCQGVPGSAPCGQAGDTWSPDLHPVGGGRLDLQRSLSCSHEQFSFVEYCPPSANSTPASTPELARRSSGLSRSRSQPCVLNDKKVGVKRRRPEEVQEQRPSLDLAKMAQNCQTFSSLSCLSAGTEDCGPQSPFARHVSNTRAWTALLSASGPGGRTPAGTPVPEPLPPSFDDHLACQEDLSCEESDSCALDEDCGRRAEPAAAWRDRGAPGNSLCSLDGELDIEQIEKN
UniProt Q96C11: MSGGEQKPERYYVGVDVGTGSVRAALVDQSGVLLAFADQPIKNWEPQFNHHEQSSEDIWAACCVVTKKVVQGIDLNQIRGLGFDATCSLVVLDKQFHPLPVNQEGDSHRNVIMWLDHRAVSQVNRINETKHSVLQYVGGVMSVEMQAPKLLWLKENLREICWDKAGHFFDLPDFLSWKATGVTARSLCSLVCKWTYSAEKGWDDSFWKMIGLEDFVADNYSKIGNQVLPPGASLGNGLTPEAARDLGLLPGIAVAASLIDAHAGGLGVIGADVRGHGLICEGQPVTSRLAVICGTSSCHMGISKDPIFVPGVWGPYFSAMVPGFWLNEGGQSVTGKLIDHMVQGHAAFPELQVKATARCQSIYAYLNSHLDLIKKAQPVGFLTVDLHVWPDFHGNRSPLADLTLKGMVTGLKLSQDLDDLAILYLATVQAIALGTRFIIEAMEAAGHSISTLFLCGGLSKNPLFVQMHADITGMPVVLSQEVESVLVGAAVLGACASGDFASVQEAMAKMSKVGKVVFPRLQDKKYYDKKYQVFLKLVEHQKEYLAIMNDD
UniProt Q00688: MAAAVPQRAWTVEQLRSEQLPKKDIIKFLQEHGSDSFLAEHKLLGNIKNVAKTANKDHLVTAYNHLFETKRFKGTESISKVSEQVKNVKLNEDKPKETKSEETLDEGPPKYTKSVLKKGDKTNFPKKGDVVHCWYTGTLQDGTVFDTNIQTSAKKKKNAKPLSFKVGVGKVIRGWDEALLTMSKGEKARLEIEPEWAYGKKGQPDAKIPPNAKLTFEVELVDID
UniProt A2RU67: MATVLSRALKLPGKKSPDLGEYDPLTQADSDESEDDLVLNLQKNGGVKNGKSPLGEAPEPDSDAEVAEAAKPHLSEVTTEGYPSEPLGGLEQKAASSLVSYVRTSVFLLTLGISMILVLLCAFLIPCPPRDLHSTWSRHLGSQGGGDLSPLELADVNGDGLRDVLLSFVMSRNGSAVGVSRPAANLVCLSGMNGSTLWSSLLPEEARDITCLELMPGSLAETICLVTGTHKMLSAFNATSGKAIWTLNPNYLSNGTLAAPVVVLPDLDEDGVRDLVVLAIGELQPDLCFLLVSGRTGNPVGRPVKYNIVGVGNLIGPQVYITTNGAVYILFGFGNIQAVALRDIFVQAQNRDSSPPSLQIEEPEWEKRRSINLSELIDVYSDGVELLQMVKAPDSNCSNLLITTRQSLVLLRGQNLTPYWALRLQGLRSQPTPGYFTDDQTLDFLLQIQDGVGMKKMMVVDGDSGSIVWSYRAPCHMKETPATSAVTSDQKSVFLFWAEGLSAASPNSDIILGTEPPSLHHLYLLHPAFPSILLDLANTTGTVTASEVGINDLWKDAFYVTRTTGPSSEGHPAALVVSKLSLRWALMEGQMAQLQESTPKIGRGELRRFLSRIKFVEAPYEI
UniProt Q9NRD1: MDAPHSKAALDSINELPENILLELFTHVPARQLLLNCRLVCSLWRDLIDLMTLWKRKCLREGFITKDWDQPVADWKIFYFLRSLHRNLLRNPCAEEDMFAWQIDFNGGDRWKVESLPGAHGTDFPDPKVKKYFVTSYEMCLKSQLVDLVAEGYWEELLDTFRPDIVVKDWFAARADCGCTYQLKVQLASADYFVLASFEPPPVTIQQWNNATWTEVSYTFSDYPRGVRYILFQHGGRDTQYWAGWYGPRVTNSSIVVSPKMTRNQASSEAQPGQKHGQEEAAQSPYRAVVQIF
UniProt O14526: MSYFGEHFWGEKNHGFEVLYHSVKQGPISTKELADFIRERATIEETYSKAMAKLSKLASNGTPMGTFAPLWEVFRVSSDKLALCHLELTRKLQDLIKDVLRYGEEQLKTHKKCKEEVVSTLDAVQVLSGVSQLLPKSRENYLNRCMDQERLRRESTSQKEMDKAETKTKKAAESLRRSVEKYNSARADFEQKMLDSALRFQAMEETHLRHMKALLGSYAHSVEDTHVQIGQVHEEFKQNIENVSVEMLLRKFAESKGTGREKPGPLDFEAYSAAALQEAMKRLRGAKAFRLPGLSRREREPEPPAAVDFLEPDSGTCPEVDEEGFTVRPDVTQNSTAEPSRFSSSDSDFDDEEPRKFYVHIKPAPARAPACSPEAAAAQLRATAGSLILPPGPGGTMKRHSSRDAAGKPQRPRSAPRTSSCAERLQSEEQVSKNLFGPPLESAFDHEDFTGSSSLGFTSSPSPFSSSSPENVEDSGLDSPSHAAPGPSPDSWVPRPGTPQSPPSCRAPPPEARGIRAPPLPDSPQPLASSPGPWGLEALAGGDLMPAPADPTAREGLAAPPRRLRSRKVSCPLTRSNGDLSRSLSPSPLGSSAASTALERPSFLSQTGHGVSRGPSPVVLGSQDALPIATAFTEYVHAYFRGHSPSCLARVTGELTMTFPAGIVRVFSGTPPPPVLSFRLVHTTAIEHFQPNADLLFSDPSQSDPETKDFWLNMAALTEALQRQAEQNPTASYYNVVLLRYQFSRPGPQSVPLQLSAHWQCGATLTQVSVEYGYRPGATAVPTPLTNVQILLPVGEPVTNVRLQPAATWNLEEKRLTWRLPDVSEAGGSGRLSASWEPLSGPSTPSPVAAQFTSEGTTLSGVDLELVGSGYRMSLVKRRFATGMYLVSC
UniProt Q96GI7: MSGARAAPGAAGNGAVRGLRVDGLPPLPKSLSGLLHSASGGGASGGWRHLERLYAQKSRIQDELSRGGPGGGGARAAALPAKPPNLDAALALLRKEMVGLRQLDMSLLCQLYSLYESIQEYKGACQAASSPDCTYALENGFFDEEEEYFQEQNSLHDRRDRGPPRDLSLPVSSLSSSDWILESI
UniProt Q9UKB1: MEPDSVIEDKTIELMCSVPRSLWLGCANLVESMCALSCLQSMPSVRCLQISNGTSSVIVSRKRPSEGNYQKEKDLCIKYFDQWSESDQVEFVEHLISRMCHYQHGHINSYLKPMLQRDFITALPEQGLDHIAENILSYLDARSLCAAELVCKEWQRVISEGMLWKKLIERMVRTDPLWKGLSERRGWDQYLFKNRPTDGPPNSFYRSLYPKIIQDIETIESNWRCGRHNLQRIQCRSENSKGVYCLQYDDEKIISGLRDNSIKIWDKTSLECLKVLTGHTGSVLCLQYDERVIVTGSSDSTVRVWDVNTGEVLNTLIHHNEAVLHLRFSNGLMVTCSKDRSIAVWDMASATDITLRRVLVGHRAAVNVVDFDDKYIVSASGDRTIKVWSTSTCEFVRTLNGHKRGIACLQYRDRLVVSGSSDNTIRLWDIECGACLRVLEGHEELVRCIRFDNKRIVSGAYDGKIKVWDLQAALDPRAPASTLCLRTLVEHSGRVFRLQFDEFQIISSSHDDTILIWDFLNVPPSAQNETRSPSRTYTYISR
UniProt Q9Y324: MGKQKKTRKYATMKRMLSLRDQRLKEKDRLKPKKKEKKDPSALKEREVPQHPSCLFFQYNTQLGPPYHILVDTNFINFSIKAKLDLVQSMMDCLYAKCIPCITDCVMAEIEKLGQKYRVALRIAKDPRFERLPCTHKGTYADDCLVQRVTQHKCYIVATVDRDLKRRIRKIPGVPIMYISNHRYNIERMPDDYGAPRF
UniProt Q96IV6: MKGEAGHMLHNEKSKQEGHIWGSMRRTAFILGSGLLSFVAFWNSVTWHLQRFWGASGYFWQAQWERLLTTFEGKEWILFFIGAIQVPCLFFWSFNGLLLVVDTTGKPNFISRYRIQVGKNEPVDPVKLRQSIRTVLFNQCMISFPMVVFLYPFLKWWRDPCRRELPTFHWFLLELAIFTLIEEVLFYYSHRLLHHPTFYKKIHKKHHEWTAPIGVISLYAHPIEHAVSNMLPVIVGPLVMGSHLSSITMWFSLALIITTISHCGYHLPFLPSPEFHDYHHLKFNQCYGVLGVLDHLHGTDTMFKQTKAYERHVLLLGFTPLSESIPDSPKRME
UniProt Q9H9S5: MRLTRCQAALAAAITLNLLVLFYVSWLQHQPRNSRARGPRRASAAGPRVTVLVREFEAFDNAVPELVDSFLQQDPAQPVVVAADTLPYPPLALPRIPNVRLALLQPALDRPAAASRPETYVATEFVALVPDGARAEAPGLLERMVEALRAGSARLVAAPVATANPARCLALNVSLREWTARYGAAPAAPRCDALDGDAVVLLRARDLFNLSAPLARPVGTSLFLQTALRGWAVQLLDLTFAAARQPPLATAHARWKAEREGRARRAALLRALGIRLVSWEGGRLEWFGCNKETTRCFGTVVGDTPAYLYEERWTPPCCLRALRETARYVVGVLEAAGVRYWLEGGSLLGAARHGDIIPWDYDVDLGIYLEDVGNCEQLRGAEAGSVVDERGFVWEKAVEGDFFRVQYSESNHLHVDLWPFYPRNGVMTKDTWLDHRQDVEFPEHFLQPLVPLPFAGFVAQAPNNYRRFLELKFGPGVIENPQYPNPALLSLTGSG
UniProt P16591: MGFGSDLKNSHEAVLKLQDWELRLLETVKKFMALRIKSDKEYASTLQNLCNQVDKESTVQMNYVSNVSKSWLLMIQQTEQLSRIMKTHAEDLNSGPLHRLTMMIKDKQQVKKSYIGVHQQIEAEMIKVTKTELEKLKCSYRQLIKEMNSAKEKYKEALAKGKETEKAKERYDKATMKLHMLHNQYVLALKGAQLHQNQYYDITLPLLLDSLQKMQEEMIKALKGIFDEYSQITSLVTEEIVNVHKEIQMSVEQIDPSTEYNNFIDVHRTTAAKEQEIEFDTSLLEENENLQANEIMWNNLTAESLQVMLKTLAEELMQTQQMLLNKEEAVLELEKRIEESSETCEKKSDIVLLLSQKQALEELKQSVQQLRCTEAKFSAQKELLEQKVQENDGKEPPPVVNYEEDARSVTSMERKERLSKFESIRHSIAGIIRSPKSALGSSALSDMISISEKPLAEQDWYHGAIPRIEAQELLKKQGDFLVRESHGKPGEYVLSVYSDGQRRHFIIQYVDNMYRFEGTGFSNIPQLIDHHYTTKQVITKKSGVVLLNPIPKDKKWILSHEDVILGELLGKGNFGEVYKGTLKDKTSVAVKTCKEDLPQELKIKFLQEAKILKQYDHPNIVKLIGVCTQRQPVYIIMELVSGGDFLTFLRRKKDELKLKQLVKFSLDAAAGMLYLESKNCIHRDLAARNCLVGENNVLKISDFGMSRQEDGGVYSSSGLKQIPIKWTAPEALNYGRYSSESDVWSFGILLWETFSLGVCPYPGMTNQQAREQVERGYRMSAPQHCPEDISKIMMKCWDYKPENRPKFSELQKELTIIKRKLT
UniProt Q96CD0: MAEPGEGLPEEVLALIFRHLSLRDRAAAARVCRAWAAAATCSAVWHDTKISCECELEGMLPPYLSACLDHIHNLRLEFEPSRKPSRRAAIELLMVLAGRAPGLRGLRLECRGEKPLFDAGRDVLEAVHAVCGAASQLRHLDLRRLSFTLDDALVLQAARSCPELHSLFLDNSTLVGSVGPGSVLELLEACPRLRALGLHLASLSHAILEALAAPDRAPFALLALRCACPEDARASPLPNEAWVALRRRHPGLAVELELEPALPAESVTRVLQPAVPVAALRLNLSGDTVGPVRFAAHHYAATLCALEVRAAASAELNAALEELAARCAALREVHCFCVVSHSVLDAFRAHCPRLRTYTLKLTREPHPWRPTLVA

Key:
Test in all cases: log2 fold change, soluble protein after heating vs DMSO (PISA); higher = thermal stabilisation; K562 cells, 10 uM, 30 min; active = over 0.2 and 3.5 SD of the protein, either way, in both replicates (recomputed)
IRAK-1-4 Inhibitor I = compound: C1COCCN1CCN2C3=CC=CC=C3N=C2NC(=O)C4=CC(=CC=C4)[N+](=O)[O-] [IRAK-1-4 Inhibitor I]
Procedure, shortened: (§1)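 Quantification of soluble protein used TMTpro 16plex LC-MS/MS, with channel sums equalised. Samples were the supernatant after 21,000xg for 90 min of pooled aliquots from K562 cells (2×10^6 cells/mL) treated with 10 μM compound for 30 min, heated for 3 min over 48°C-58°C, and extracted in PBS with 0.5% NP-40 at 4°C. Values, from duplicates, describe thermal stability against control samples on a log2 fold-change scale.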

ibrutinib = compound: C=CC(=O)N1CCC[C@@H](n2nc(-c3ccc(Oc4ccccc4)cc3)c3c(N)ncnc32)C1 [ibrutinib]
Procedure, shortened: as §1

[1] = compound: CC(=O)c1cnc2ccc(-c3cc(Cl)c(O)c(Cl)c3)nc2c1N[C@H]1CC[C@H](CN(C)C)CC1
Procedure, shortened: as §1

ralimetinib = compound: CC(C)(C)Cn1c(N)nc2ccc(-c3[nH]c(C(C)(C)C)nc3-c3ccc(F)cc3)nc21 [ralimetinib]
Procedure, shortened: as §1

[2] = compound: CC(C)C1=C2N=C(C=C(N2N=C1)NCC3=CC=CC=C3)NCCCCCCN
Procedure, shortened: as §1

[3] = compound: CC(C)C[C@@H](C=O)NC(=O)[C@H](CC(C)C)NC(=O)[C@H](CC(C)C)NC(=O)OCc1ccccc1
Procedure, shortened: as §1

pinometostat = compound: CC(C)N(C[C@H]1O[C@@H](n2cnc3c(N)ncnc32)[C@H](O)[C@@H]1O)[C@H]1C[C@@H](CCc2nc3cc(C(C)(C)C)ccc3[nH]2)C1 [pinometostat]
Procedure, shortened: as §1

[4] = compound: CC1=C(C(CC(=O)N1)C2=CC=C(C=C2)C(F)(F)F)C(=O)NC3=C(C=C4C(=C3)C=NN4)F
Procedure, shortened: as §1

[5] = compound: CC1=C(C2=C(C=C1)C(=O)C3=CC=CC=C3N2CCCN)C
Procedure, shortened: as §1

[6] = compound: CC1=C(C=C(C=C1)NC(=O)C2=CC(=CC=C2)C(C)(C)C#N)NC3=CC4=C(C=C3)N=CN(C4=O)C
Procedure, shortened: as §1

[7] = compound: CC1=C(C=C(C=C1)NC(=O)C2=CC(=CC=C2)N(C)C)NC(=O)C3=CC=C(C=C3)O
Procedure, shortened: as §1

[8] = compound: CC1=CC=C(C=C1)SC2=C3C=C(SC3=CN=C2)C(=O)N
Procedure, shortened: as §1

[9] = compound: CC1=NC(=CC=C1)C2=C(N=C(N2)C(C)(C)C)C3=CC4=NC=CN=C4C=C3
Procedure, shortened: as §1

vemurafenib = compound: CCCS(=O)(=O)Nc1ccc(F)c(C(=O)c2c[nH]c3ncc(-c4ccc(Cl)cc4)cc23)c1F [vemurafenib]
Procedure, shortened: as §1

[10] = compound: CCCS(=O)(=O)Nc1ccc(F)c(C(=O)c2c[nH]c3ncc(Cl)cc23)c1F
Procedure, shortened: as §1

[11] = compound: CCCc1cc(C)[nH]c(=O)c1CNC(=O)c1cc(-c2ccnc(N3CCN(C)CC3)c2)cc2c1cnn2C(C)C
Procedure, shortened: as §1

givinostat = compound: CCN(CC)Cc1ccc2cc(COC(=O)Nc3ccc(C(=O)NO)cc3)ccc2c1 [givinostat]
Procedure, shortened: as §1

barasertib = compound: CCN(CCCOc1ccc2c(Nc3cc(CC(=O)Nc4cccc(F)c4)[nH]n3)ncnc2c1)CCOP(=O)(O)O [barasertib]
Procedure, shortened: as §1

[12] = compound: CC(C)(O)CC(=O)NCCn1ccc2ncnc(Nc3ccc(Oc4cccc(C(F)(F)F)c4)c(Cl)c3)c21
Procedure, shortened: as §1

Nexturastat A = compound: CCCCN(Cc1ccc(C(=O)NO)cc1)C(=O)Nc1ccccc1 [Nexturastat A]
Procedure, shortened: as §1

Measured: log2 fold change

FNBP1L (UniProt Q5T0N5)
inactive: IRAK-1-4 Inhibitor I 0.032 | ibrutinib 0.067 | [1] 0.019 | ralimetinib -0.006 | [2] 0.071 | [3] 0.046 | pinometostat -0.014 | [4] 0.081 | [5] 0.141 | [6] -0.024 | [7] 0.037 | [8] -0.002 | [9] 0.033 | vemurafenib 0.065 | [10] -0.014 | [11] 0.036 | givinostat 0.202 | barasertib 0.012

FAM53B (UniProt Q14153)
inactive: IRAK-1-4 Inhibitor I 0.037 | ralimetinib 0.023 | [12] -0.007 | [2] -0.003 | [3] 0.007 | pinometostat 0.015 | [7] 0.133 | [9] -0.007 | Nexturastat A 0.127 | vemurafenib 0.056 | [11] 0.144 | givinostat 0.126

FGGY isoform 3 (UniProt Q96C11)
inactive: IRAK-1-4 Inhibitor I -0.102 | ibrutinib 0.296 | [1] 0 | ralimetinib -0.011 | [12] -0.097 | [2] 0.111 | [3] 0.078 | pinometostat -0.142 | [5] -0.075 | [7] -0.091 | [8] 0.103 | [9] 0.026 | Nexturastat A 0 | vemurafenib 0.09 | [10] -0.064 | [11] 0.116 | givinostat -0.016 | barasertib -0.142

FKBP3 (UniProt Q00688)
inactive: IRAK-1-4 Inhibitor I 0.01 | ibrutinib 0.009 | [1] 0.016 | ralimetinib 0.001 | [12] -0.028 | [2] 0.023 | [3] -0.014 | pinometostat -0.057 | [5] -0.004 | [6] 0.024 | [7] 0 | [8] 0.009 | [9] 0.122 | Nexturastat A -0.002 | vemurafenib -0.015 | [10] -0.041 | [11] -0.013 | givinostat -0.023 | barasertib -0.02

FAM234B (UniProt A2RU67)
inactive: IRAK-1-4 Inhibitor I 0.023 | ibrutinib 0.071 | [1] -0.086 | ralimetinib 0 | [2] 0.26 | [3] -0.003 | pinometostat 0.009 | [5] 0.15 | [6] -0.017 | [7] -0.085 | [8] -0.018 | [9] -0.013 | vemurafenib 0.082 | [10] -0.026 | givinostat 0.021 | barasertib -0.091

FAT1 (UniProt Q14517)
active: ralimetinib -0.448
inactive: IRAK-1-4 Inhibitor I 0.028 | ibrutinib 0.151 | [12] 0.01 | [2] 0.162 | [3] 0.683 | pinometostat -0.095 | [5] 0.091 | [6] -0.036 | [7] -0.218 | [8] -0.029 | [9] 0.053 | Nexturastat A 0.104 | vemurafenib -0.199 | [10] -0.051 | [11] -0.067 | givinostat 0.044 | barasertib 0.045

FBXO6 (UniProt Q9NRD1)
inactive: IRAK-1-4 Inhibitor I -0.015 | ibrutinib 0.015 | [1] -0.068 | ralimetinib 0.004 | [12] -0.127 | [3] -0.046 | pinometostat -0.021 | [5] 0.068 | [6] 0.006 | [7] 0.006 | [8] 0.048 | [9] 0.026 | Nexturastat A -0.04 | vemurafenib 0.044 | [10] 0.014 | [11] -0.01 | givinostat -0.093 | barasertib -0.008
active: [2] 0.437

FCHO1 (UniProt O14526)
inactive: IRAK-1-4 Inhibitor I -0.114 | ralimetinib -0.081 | [12] -0.073 | [2] 0.045 | [3] 0.191 | pinometostat 0.05 | [5] -0.011 | [6] 0.103 | [7] -0.023 | [8] 0.004 | [9] -0.016 | Nexturastat A 0.053 | vemurafenib 0.254 | [10] 0.037 | [11] -0.003 | givinostat 0.073
active: [1] -0.593

FAM89A (UniProt Q96GI7)
inactive: IRAK-1-4 Inhibitor I -0.027 | ibrutinib -0.233 | ralimetinib 0.101 | [2] -0.028 | [3] 0.02 | pinometostat -0.024 | [4] 0.045 | [6] 0.074 | [7] -0.007 | [9] 0.041 | [11] 0.059 | givinostat 0.039 | barasertib 0.097

FAT2 (UniProt Q9NYQ8)
inactive: IRAK-1-4 Inhibitor I 0.103 | ibrutinib 0.107 | ralimetinib 0.182 | [12] -0.149 | [2] -0.002 | [3] 0.225 | pinometostat 0.051 | [5] 0.132 | [7] -0.035 | [8] -0.113 | [9] -0.114 | Nexturastat A 0.456 | vemurafenib -0.002 | [10] 0.009 | [11] -0.333 | givinostat 0.119 | barasertib 0.069

FBXW11 (UniProt Q9UKB1)
inactive: IRAK-1-4 Inhibitor I -0.074 | [1] 0.079 | ralimetinib 0.082 | [2] -0.093 | [3] 0.14 | pinometostat 0.138 | [5] 0.001 | [7] 0.131 | [8] 0.032 | [9] 0.134 | vemurafenib -0.137 | [10] -0.016 | givinostat 0.024

FAM3A (UniProt P98173)
active: Nexturastat A -0.304
inactive: IRAK-1-4 Inhibitor I -0.028 | ibrutinib -0.011 | [1] 0.028 | ralimetinib 0.023 | [12] -0.028 | [2] -0.07 | [3] 0.047 | pinometostat 0.007 | [5] 0.088 | [6] -0.022 | [7] 0.012 | [8] -0.005 | [9] 0.003 | vemurafenib 0.015 | [10] 0.013 | [11] -0.031 | givinostat -0.001 | barasertib 0.014

FIBP (UniProt O43427)
inactive: IRAK-1-4 Inhibitor I 0.026 | ibrutinib 0.019 | [1] -0.146 | ralimetinib 0.041 | [12] -0.143 | [2] 0.018 | [3] 0.065 | pinometostat 0.075 | [5] -0.039 | [6] 0.046 | [7] -0.009 | [8] 0.001 | [9] 0 | Nexturastat A -0.009 | vemurafenib 0.03 | [10] 0.089 | [11] 0 | givinostat -0.009 | barasertib -0.071

FCF1 (UniProt Q9Y324)
active: [5] -1.04
inactive: IRAK-1-4 Inhibitor I -0.083 | ralimetinib 0.223 | [12] 0.032 | [3] 0.074 | pinometostat 0.334 | [6] 0.017 | [7] -0.011 | [8] -0.114 | [9] -0.187 | Nexturastat A 0.271 | vemurafenib -0.139 | [10] -0.167 | [11] 0.324

FAXDC2 (UniProt Q96IV6)
inactive: IRAK-1-4 Inhibitor I -0.005 | ibrutinib -0.008 | pinometostat -0.07 | [4] 0.093 | [9] -0.139 | barasertib 0.18

Retrieved one by one from above (two):
FBXW11 (UniProt Q9UKB1)
inactive: IRAK-1-4 Inhibitor I -0.074 | [1] 0.079 | ralimetinib 0.082 | [2] -0.093 | [3] 0.14 | pinometostat 0.138 | [5] 0.001 | [7] 0.131 | [8] 0.032 | [9] 0.134 | vemurafenib -0.137 | [10] -0.016 | givinostat 0.024

FIBP (UniProt O43427)
inactive: IRAK-1-4 Inhibitor I 0.026 | ibrutinib 0.019 | [1] -0.146 | ralimetinib 0.041 | [12] -0.143 | [2] 0.018 | [3] 0.065 | pinometostat 0.075 | [5] -0.039 | [6] 0.046 | [7] -0.009 | [8] 0.001 | [9] 0 | Nexturastat A -0.009 | vemurafenib 0.03 | [10] 0.089 | [11] 0 | givinostat -0.009 | barasertib -0.071

Next part:

FBF1 isoform 6 (UniProt Q8TES7)
inactive: IRAK-1-4 Inhibitor I -0.054 | [1] -0.052 | pinometostat 0.138 | [4] -0.093 | [9] -0.076

FKRP (UniProt Q9H9S5)
inactive: ibrutinib 0.032 | [1] 0 | ralimetinib 0.022 | [12] 0.119 | [2] 0.158 | [3] -0.112 | [4] 0.019 | [5] 0.056 | [6] 0.013 | [7] 0.047 | [8] -0.033 | Nexturastat A -0.06 | vemurafenib 0.048 | [10] 0.054 | [11] -0.056 | givinostat -0.037 | barasertib 0.007

FER (UniProt P16591)
inactive: [1] 0.128 | [2] 0.109 | [6] -0.035 | vemurafenib -0.018 | givinostat 0.483

FIZ1 (UniProt Q96SL8)
inactive: IRAK-1-4 Inhibitor I -0.14 | [12] 0.017 | pinometostat 0.123 | [6] -0.164 | [9] -0.047 | Nexturastat A 0.102 | vemurafenib 0.13 | [11] -0.022

FBXL8 (UniProt Q96CD0)
inactive: ibrutinib 0.133 | [12] 0.1 | [2] 0.05 | [5] 0.002 | [6] -0.102 | Nexturastat A -0.207 | givinostat 0.034 | barasertib -0.005
